Experimental data: PMC9443502
No constants are given. Whether binding was seen depends on the method and setting. Binding seen in cells or lysates may run through a third protein. Some binding calls cover weakened binding; strength is not graded here. For some assays here: Tags and fused reporters may be left off the sequences shown.

B1: FOXM1-Flag (protein, UniProt Q08050 1-763)
chain: MKTSPRRPLILKRRRLPLPVQNAPSETSEEEPKRSPAQQESNQAEASKEVAESNSCKFPAGIKIINHPTMPNTQVVAIPNNANIHSIITALTAKGKESGSSGPNKFILISCGGAPTQPPGLRPQTQTSYDAKRTEVTLETLGPKPAARDVNLPRPPGALCEQKRETCADGEAAGCTINNSLSNIQWLRKMSSDGLGSRSIKQEMEEKENCHLEQRQVKVEEPSRPSASWQNSVSERPPYSYMAMIQFAINSTERKRMTLKDIYTWIEDHFPYFKHIAKPGWKNSIRHNLSLHDMFVRETSANGKVSFWTIHPSANRYLTLDQVFKPLDPGSPQLPEHLESQQKRPNPELRRNMTIKTELPLGARRKMKPLLPRVSSYLVPIQFPVNQSLVLQPSVKVPLPLAASLMSSELARHSKRVRIAPKVLLAEEGIAPLSSAGPGKEEKLLFGEGFSPLLPVQTIKEEEIQPGEEMPHLARPIKVESPPLEEWPSPAPSFKEESSHSWEDSSQSPTPRPKKSYSGLRSPTRCVSEMLVIQHRERRERSRSRRKQHLLPPCVDEPELLFSEGPSTSRWAAELPFPADSSDPASQLSYSQEVGGPFKTPIKETLPISSTPSKSVLPRTPESWRLTPPAKVGGLDFSPVQTSQGASDPLPDPLGLMDLSTTPLQSAPPLESPQRLLSSEPLDLISVPFGNSSPSDIDVPKPGSPEPQVSGLAANRSLTEGLVLDTMNDSLSKILLDISFPGLDEDPLGPDNINWSQFIPELQ
B2: endogenous FOXM1 (protein, UniProt Q08050 1-763)
chain: B1 chain

What was measured:
DEPDC1-V5 = target: T1, DEPDC1-V5 (UniProt Q5TB30); assay: co-IP; HEK293T cells co-transfected with DEPDC1-V5 and FOXM1-Flag; RIPA lysate; antibodies (anti-V5, anti-DEPDC1, anti-FOXM1, anti-FLAG, normal IgG) and protein G beads, 4 °C overnight; four RIPA washes; Western blot; forward and reverse precipitation
T1 sequence: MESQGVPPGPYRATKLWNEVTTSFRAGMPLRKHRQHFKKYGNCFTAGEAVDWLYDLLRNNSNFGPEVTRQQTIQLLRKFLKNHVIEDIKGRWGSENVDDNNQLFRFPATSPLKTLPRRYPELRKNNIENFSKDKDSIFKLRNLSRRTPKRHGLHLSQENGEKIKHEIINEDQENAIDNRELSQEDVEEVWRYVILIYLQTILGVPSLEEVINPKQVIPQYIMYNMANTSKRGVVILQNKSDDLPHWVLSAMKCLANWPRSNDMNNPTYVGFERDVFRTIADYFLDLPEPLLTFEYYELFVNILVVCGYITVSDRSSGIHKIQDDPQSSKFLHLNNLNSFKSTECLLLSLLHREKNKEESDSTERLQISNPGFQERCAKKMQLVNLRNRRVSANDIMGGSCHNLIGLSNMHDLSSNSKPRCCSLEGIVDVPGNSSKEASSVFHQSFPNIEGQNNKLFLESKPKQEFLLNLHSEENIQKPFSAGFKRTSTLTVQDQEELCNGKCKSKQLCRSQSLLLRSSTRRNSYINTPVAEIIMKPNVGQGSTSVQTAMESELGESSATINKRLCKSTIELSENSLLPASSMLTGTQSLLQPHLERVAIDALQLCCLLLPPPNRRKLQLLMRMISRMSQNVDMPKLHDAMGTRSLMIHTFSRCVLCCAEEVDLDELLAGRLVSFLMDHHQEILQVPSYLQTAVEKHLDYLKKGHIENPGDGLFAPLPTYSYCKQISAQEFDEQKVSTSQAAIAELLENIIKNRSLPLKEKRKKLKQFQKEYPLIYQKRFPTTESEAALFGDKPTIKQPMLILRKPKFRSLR

[1] = target: T2, endogenous DEPDC1 (human (endogenous in SCC-25)) (UniProt Q5TB30); assay: co-IP; endogenous proteins in SCC-25 cell lysate; Western blot
T2 sequence: T1 sequence

| Binder | binding (DEPDC1-V5) | binding [1] |
| --- | --- | --- |
| B1 | binds | – |
| B2 | – | binds |
